Assay results taken from PMC11609542.
Results are given in words; binding and its absence hold for the method and conditions named. In cells and extracts the contact can be indirect. These calls come from enrichment with a bait or labelling near it, and not all partners need be listed. Values belong to the binder of their own block, whether it stands above or below them.

The chains behind the UniProt entries cited, without tags or fusion partners.
UniProt Q8TEB1: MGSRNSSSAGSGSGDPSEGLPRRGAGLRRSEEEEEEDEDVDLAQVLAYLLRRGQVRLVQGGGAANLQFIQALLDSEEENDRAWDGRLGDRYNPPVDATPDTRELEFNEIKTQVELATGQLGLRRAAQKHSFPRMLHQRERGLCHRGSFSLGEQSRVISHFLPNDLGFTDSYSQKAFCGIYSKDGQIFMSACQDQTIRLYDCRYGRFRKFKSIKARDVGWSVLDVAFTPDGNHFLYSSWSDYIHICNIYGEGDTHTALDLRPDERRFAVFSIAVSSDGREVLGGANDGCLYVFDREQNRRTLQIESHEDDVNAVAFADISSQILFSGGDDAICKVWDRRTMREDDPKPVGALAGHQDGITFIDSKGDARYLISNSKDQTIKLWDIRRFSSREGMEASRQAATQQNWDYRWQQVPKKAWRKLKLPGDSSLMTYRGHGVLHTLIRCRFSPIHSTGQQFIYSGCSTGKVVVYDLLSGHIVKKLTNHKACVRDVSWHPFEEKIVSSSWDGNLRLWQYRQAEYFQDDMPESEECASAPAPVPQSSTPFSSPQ
UniProt Q16531: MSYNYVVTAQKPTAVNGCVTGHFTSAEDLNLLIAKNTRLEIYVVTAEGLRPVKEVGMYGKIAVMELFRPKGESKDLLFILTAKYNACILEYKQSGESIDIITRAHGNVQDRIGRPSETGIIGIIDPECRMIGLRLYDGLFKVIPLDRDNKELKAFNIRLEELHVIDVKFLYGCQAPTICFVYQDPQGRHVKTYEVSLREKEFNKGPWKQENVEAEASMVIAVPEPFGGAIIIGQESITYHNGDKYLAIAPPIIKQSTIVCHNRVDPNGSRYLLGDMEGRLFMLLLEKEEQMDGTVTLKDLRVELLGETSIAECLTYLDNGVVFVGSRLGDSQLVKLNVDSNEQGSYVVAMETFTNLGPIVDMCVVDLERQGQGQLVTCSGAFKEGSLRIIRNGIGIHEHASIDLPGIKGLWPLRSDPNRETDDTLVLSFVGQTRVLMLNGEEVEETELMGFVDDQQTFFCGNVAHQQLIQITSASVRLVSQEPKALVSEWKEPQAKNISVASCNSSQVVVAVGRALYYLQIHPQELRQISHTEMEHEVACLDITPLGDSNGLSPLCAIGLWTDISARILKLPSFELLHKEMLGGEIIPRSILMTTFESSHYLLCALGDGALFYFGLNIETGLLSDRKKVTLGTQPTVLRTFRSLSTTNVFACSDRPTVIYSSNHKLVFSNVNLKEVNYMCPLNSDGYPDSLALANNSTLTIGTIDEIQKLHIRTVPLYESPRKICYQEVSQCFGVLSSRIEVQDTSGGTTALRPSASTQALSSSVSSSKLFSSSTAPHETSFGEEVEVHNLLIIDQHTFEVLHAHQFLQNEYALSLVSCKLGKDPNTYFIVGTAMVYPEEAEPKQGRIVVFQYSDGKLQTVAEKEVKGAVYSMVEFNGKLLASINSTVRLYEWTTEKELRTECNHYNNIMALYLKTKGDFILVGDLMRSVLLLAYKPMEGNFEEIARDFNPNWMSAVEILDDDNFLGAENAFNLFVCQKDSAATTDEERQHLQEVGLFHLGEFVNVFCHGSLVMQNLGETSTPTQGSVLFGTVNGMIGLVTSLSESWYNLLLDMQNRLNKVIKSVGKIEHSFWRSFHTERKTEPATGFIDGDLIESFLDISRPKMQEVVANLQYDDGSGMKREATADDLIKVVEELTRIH

Legend:
[1] = biological target: Strep-tagged DCAF11 (human) (UniProt Q8TEB1); experiment: affinity purification with mass spectrom
[2] = biological target: Strep-tagged DDB1 (human) (UniProt Q16531); experiment: affinity purification with mass spectrom

binding [1]: binds
B1: splicing factor THRAP3 (protein, UniProt Q9Y2W1 1-955)
chain: MSKTNKSKSGSRSSRSRSASRSRSRSFSKSRSRSRSLSRSRKRRLSSRSRSRSYSPAHNRERNHPRVYQNRDFRGHNRGYRRPYYFRGRNRGFYPWGQYNRGGYGNYRSNWQNYRQAYSPRRGRSRSRSPKRRSPSPRSRSHSRNSDKSSSDRSRRSSSSRSSSNHSRVESSKRKSAKEKKSSSKDSRPSQAAGDNQGDEAKEQTFSGGTSQDTKASESSKPWPDATYGTGSASRASAVSELSPRERSPALKSPLQSVVVRRRSPRPSPVPKPSPPLSSTSQMGSTLPSGAGYQSGTHQGQFDHGSGSLSPSKKSPVGKSPPSTGSTYGSSQKEESAASGGAAYTKRYLEEQKTENGKDKEQKQTNTDKEKIKEKGSFSDTGLGDGKMKSDSFAPKTDSEKPFRGSQSPKRYKLRDDFEKKMADFHKEEMDDQDKDKAKGRKESEFDDEPKFMSKVIGANKNQEEEKSGKWEGLVYAPPGKEKQRKTEELEEESFPERSKKEDRGKRSEGGHRGFVPEKNFRVTAYKAVQEKSSSPPPRKTSESRDKLGAKGDFPTGKSSFSITREAQVNVRMDSFDEDLARPSGLLAQERKLCRDLVHSNKKEQEFRSIFQHIQSAQSQRSPSELFAQHIVTIVHHVKEHHFGSSGMTLHERFTKYLKRGTEQEAAKNKKSPEIHRRIDISPSTFRKHGLAHDEMKSPREPGYKAEGKYKDDPVDLRLDIERRKKHKERDLKRGKSRESVDSRDSSHSRERSAEKTEKTHKGSKKQKKHRRARDRSRSSSSSSQSSHSYKAEEYTEETEEREESTTGFDKSRLGTKDFVGPSERGGGRARGTFQFRARGRGWGRGNYSGNNNNNSNNDFQKRNREEEWDPEYTPKSKKYYLHDDREGEGSDKWVSRGRGRGAFPRGRGRFMFRKSSTSPKWAHDKFSGEEGEIEDDESGTENREEKDNIQPTTE

binding [1]: binds
B2: splicing factor SRSF5 (protein, UniProt Q13243 1-272)
chain: MSGCRVFIGRLNPAAREKDVERFFKGYGRIRDIDLKRGFGFVEFEDPRDADDAVYELDGKELCSERVTIEHARARSRGGRGRGRYSDRFSSRRPRNDRRNAPPVRTENRLIVENLSSRVSWQDLKDFMRQAGEVTFADAHRPKLNEGVVEFASYGDLKNAIEKLSGKEINGRKIKLIEGSKRHSRSRSRSRSRTRSSSRSRSRSRSRSRKSYSRSRSRSRSRSRSKSRSVSRSPVPEKSQKRGSSSRSKSPASVDRQRSRSRSRSRSVDSGN

binding [2]: binds
B3: mitochondrial chaperone TRAP1 (protein, UniProt Q12931 60-704)
chain: STQTAEDKEEPLHSIISSTESVQGSTSKHEFQAETKKLLDIVARSLYSEKEVFIRELISNASDALEKLRHKLVSDGQALPEMEIHLQTNAEKGTITIQDTGIGMTQEELVSNLGTIARSGSKAFLDALQNQAEASSKIIGQFGVGFYSAFMVADRVEVYSRSAAPGSLGYQWLSDGSGVFEIAEASGVRTGTKIIIHLKSDCKEFSSEARVRDVVTKYSNFVSFPLYLNGRRMNTLQAIWMMDPKDVREWQHEEFYRYVAQAHDKPRYTLHYKTDAPLNIRSIFYVPDMKPSMFDVSRELGSSVALYSRKVLIQTKATDILPKWLRFIRGVVDSEDIPLNLSRELLQESALIRKLRDVLQQRLIKFFIDQSKKDAEKYAKFFEDYGLFMREGIVTATEQEVKEDIAKLLRYESSALPSGQLTSLSEYASRMRAGTRNIYYLCAPNRHLAEHSPYYEAMKKKDTEVLFCFEQFDELTLLHLREFDKKKLISVETDIVVDHYKEEKFEDRSPAAECLSEKETEELMAWMRNVLGSRVTNVKVTLRLDTHPAMVTVLEMGAARHFLRMQQLAKTQEERAQLLQPTLEINPRHALIKKLNQLRASEPGLAQLLVDQIYENAMIAAGLVDDPRAMVGRLNELLVKALERH
